The results are deposited in PubChem (AID504749; NCATS, 2011).

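A panel of P. falciparum strains inside erythrocytes is exposed to compounds for three days, then a DNA-binding dye reports the amount of parasite DNA. Each compound was titrated across a series from about 0.000037 to 29 µM. The number is the fitted AC50, the concentration giving a half-maximal change in signal; a lower value means higher potency, whether the curve shows a decrease or an increase. Calls follow the curve class and fit quality: every row here is inconclusive, covering signal-raising curves and weak, poorly fitted, partial or highest-dose-only inhibition curves.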

Values are in µM. All entries here are filed as inconclusive. Only part of the assay is shown, chiefly results filed as inconclusive. Potencies fitted to partial, single-point or poorly fitting curves are rough. Some entries filed as inconclusive have a full curve.

Compound	condition	potency (µM)	curve
Oc1c(Cl)cc(Cl)c2cccnc12	CP203	19.01	inhibitor, single point
Oc1c(Cl)cc(Cl)c2cccnc12	CP252	10	inhibitor, single point
Oc1c(Cl)cc(Cl)c2cccnc12	C2A	14.13	inhibitor, single point
Oc1c(Cl)cc(Cl)c2cccnc12	CP265	10	inhibitor, single point
Oc1c(Cl)cc(Cl)c2cccnc12	CP291	19.01	inhibitor, single point
Oc1c(Cl)cc(Cl)c2cccnc12	CP238	12.59	inhibitor, single point
Oc1c(Cl)cc(Cl)c2cccnc12	CP269	19.01	inhibitor, single point
Oc1c(Cl)cc(Cl)c2cccnc12	P93_24	14.13	inhibitor, single point
Oc1c(Cl)cc(Cl)c2cccnc12	CP305	16.94	inhibitor, single point
Oc1c(Cl)cc(Cl)c2cccnc12	ECU	3.548	inhibitor, partial curve, poor fit
Oc1c(Cl)cc(Cl)c2cccnc12	PAD	10	inhibitor, single point
Oc1c(Cl)cc(Cl)c2cccnc12	CP268	15.1	inhibitor, single point
Oc1c(Cl)cc(Cl)c2cccnc12	CP286	14.13	inhibitor, single point
Oc1c(Cl)cc(Cl)c2cccnc12	CP256	8.912	inhibitor, single point
Oc1c(Cl)cc(Cl)c2cccnc12	3D7	11.22	inhibitor, single point
Oc1c(Cl)cc(Cl)c2cccnc12	CP260	11.22	inhibitor, single point
Oc1c(Cl)cc(Cl)c2cccnc12	TAB113	12.59	inhibitor, single point
Oc1c(Cl)cc(Cl)c2cccnc12	CP335	16.94	inhibitor, single point
Oc1c(Cl)cc(Cl)c2cccnc12	CP211	19.01	inhibitor, single point
Oc1c(Cl)cc(Cl)c2cccnc12	CP215	13.46	inhibitor, partial curve
Oc1c(Cl)cc(Cl)c2cccnc12	AA1029	8.912	inhibitor, single point
Oc1c(Cl)cc(Cl)c2cccnc12	W2	13.46	inhibitor, single point
Oc1c(Cl)cc(Cl)c2cccnc12	CP297	12	inhibitor, partial curve, poor fit
Oc1c(Cl)cc(Cl)c2cccnc12	CP194	13.46	inhibitor, partial curve
Oc1c(Cl)cc(Cl)c2cccnc12	CP262	19.01	inhibitor, single point
Oc1c(Cl)cc(Cl)c2cccnc12	CP325	16.94	inhibitor, single point
Oc1c(Cl)cc(Cl)c2cccnc12	TAB109	12.59	inhibitor, single point
Oc1c(Cl)cc(Cl)c2cccnc12	DIV30	16.94	inhibitor, single point
O=[N+]([O-])c1ccc([As](=O)(O)O)cc1	CP266	16.94	inhibitor, single point
O=[N+]([O-])c1ccc([As](=O)(O)O)cc1	CP201	15.1	inhibitor, single point
O=[N+]([O-])c1ccc([As](=O)(O)O)cc1	CP247	7.943	inhibitor, partial curve, poor fit
O=[N+]([O-])c1ccc([As](=O)(O)O)cc1	CP192	12	inhibitor, single point
O=[N+]([O-])c1ccc([As](=O)(O)O)cc1	PC15	10	inhibitor, single point
O=[N+]([O-])c1ccc([As](=O)(O)O)cc1	JCK	8.912	inhibitor, single point
O=[N+]([O-])c1ccc([As](=O)(O)O)cc1	C2A	10	inhibitor, single point
O=[N+]([O-])c1ccc([As](=O)(O)O)cc1	PC49	11.22	inhibitor, single point
O=[N+]([O-])c1ccc([As](=O)(O)O)cc1	FAB9	8.912	inhibitor, single point
C/C(=C\C(=O)OCCCCCCCCC(=O)O)C[C@@H]1OC[C@H](C[C@@H]2O[C@H]2[C@@H](C)[C@H](C)O)[C@@H](O)[C@H]1O	P93_24	0.1995	inhibitor, full curve
C/C(=C\C(=O)OCCCCCCCCC(=O)O)C[C@@H]1OC[C@H](C[C@@H]2O[C@H]2[C@@H](C)[C@H](C)O)[C@@H](O)[C@H]1O	GB4	0.2393	inhibitor, full curve

Some entries from above, unchanged:

Compound,condition,potency (µM),curve
Oc1c(Cl)cc(Cl)c2cccnc12,CP262,19.01,"inhibitor, single point"
O=[N+]([O-])c1ccc([As](=O)(O)O)cc1,CP247,7.943,"inhibitor, partial curve, poor fit"